Results are given in words; binding and its absence hold for the method and conditions named. In cells and extracts the contact can be indirect. Some binding calls cover weakened binding; strength is not graded here.
Target: HA-tagged GEMIN5 WT (human) (UniProt Q8TEQ6)
Assay: co-IP; lysates of HEK cells expressing HA-tagged GEMIN5, L1068P or H913R in 10 mM Tris-HCl pH 7.5, 100 mM NaCl, 2.5 mM MgCl2, 0.1% NP40, 2 mM DTT; anti-HA antibody overnight at 4 °C, Protein A Dynabeads 3 h at 4 °C; blots for HA, GEMIN4, GEMIN3 and SMN

Protein sequences, listed by entry. Tags and fused reporters are not part of them.
UniProt Q8TEQ6: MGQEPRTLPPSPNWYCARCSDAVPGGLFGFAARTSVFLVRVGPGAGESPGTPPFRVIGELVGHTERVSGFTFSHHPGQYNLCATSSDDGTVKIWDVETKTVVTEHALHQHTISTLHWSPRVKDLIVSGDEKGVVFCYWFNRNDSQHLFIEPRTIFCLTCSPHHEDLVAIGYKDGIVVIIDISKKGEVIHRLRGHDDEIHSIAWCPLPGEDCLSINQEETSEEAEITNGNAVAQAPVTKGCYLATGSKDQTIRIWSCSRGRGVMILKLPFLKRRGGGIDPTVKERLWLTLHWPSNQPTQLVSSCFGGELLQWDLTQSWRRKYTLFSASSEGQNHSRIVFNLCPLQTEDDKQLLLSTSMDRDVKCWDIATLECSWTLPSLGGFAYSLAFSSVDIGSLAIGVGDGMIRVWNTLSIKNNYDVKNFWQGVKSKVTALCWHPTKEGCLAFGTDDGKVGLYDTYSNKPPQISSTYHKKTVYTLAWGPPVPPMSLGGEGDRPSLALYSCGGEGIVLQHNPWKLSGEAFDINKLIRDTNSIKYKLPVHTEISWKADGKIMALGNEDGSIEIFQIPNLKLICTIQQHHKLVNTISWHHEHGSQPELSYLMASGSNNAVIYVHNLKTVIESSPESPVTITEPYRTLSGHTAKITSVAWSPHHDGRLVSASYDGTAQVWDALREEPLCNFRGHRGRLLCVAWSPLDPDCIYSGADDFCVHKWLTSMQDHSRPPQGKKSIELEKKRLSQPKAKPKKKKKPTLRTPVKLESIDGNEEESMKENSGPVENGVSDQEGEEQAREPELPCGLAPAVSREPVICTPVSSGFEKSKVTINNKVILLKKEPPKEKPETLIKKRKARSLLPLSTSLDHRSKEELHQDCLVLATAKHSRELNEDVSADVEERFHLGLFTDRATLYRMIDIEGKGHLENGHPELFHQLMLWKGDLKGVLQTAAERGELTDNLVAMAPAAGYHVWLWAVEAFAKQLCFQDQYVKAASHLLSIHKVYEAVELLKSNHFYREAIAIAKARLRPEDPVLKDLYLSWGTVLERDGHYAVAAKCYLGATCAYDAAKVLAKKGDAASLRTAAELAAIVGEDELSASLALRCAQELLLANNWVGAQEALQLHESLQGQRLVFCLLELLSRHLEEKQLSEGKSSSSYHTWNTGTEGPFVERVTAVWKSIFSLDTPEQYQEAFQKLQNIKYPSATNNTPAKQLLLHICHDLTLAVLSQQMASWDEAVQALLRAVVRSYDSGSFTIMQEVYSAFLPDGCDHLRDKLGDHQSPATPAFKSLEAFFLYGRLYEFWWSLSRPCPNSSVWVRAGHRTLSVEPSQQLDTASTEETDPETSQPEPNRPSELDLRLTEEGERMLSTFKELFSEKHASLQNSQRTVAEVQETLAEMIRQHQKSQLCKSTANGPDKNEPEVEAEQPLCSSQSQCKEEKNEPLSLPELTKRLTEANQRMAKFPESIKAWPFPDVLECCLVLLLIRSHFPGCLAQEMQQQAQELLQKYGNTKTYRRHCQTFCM
UniProt Q9UHI6: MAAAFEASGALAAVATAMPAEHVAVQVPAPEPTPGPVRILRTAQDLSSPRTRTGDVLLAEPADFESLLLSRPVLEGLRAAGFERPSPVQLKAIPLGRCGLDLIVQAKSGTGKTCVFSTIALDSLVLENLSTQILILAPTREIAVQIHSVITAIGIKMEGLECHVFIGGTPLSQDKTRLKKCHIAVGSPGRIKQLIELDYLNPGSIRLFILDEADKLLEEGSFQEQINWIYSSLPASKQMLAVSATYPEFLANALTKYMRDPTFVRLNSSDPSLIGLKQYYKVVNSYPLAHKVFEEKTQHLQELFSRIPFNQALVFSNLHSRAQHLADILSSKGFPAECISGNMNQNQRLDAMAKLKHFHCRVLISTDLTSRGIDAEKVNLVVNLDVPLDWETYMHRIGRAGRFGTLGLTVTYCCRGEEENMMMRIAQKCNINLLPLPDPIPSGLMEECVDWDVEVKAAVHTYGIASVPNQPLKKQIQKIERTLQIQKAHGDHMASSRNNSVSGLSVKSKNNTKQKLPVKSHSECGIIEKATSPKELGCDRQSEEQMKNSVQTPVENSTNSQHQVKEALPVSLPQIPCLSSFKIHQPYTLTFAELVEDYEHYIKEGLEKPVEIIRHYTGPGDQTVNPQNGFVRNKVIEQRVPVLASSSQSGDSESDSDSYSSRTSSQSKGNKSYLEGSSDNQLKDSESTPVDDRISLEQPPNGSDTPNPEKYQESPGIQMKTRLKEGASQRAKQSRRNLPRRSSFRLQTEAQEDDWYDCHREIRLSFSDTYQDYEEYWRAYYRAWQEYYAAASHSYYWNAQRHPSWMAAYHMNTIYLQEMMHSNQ
UniProt P57678: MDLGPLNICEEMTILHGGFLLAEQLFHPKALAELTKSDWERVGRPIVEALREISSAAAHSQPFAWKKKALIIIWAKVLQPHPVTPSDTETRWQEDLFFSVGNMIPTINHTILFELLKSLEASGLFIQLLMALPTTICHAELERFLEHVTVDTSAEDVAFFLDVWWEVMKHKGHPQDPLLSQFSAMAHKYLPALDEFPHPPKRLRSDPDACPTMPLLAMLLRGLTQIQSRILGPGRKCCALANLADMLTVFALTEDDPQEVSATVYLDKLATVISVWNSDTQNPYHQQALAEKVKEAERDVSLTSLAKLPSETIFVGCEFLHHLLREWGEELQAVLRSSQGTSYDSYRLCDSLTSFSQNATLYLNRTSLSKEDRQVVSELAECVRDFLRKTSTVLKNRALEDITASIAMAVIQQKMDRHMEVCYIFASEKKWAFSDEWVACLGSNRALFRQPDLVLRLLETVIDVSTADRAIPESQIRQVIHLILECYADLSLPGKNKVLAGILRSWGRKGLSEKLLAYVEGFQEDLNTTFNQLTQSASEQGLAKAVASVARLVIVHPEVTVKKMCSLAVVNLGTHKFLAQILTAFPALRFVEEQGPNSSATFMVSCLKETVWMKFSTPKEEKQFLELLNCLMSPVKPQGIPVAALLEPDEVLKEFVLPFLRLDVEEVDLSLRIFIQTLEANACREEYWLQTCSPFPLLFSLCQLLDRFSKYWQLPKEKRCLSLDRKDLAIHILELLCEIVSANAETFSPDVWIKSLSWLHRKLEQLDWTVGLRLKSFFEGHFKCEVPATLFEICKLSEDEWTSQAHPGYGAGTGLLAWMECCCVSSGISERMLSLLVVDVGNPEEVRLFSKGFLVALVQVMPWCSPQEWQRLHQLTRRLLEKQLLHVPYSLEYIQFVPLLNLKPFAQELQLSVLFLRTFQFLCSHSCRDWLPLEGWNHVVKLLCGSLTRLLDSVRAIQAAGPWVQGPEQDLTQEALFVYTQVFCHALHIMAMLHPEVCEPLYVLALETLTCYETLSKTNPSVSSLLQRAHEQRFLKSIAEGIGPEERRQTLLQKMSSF
UniProt Q16637: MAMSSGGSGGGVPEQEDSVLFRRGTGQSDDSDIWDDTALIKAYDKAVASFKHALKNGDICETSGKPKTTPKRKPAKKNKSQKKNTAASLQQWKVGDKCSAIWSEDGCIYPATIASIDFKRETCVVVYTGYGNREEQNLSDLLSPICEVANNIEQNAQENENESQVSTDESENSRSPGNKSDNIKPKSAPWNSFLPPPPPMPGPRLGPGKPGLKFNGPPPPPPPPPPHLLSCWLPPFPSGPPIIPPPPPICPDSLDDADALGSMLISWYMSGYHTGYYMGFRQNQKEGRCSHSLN

binding	Substance
binds	GEMIN3 (from UniProt Q9UHI6 1-824)
binds	GEMIN4 (from UniProt P57678 1-1058)
binds	SMN (from UniProt Q16637 1-294)
